Measurements taken from patent US20250170143A1, “METHODS OF TREATING OCULAR FIBROTIC PATHOLOGIES” (Mayo Foundation for Medical Education and Research, priority 2022, published 2025).
“Also recorded” adds a separate entry of the source. For some assays here: At least one compound was matched to its structure with a doubt left. Some entries share one result that the patent states for a list of compounds.

Experiments:
[1] = test system: ARPE-19 cells; experiment: Fibronectin deposition assay in TGFβ-stimulated ARPE-19 cells; assay type: cell-based, human; conditions: ARPE-19, 4 days, TGFβ ± 10 μM loxapine
Procedure: ARPE-19 cells were plated into 96-well plates (10,000 cells/well) and allowed to attach. Media was removed and replaced with the media specified in the “Cell Culture” section above, without FBS. Cells were treated for four days±TGFβ (10 ng/mL) and 10 μM loxapine. Cells were fixed with 10% neutral buffered formalin (Sigma-Aldrich) for 15 minutes. Cells were permeabilized with 0.25% Triton X-100 (Sigma-Aldrich) and blocked with 1% BSA for 1 hour. Cells were incubated with mouse monoclonal IgG3 primary antibodies against fibronectin (Santa Cruz Biotechnology), which were diluted 1:400 in 0.25% Triton X-100 (Sigma-Aldrich) with 1% BSA. Cells were incubated with primary antibodies either in 4° C. overnight or at room temperature for 2 hours. Cells were washed with PBS (Gibco), then incubated for 1 hour with Alexa Fluor® 488 donkey anti-mouse IgG (H+L) secondary antibodies (Life Technologies) and DAPI (Thermo Fisher Scientific), which were each diluted 1:1000 in 0.25% Triton X-100 (Sigma-Aldrich) with 1% BSA. Cells were washed again with PBS (Gibco). Immunofluorescence was measured using a Cytation 5 imaging reader (BioTek).
The compounds of this Example were tested using the fibronectin deposition assay described in Example 1. In brief, ARPE-19 cells were stimulated with TGFβ+/−the indicated concentration of each compound. Incubated 96 hours Fixed and immunostained for fibronectin. […]

[2] = test system: profibrotic gene expression (COL1A1, ACTA2, FN1) in ARPE-19 cells; experiment: Profibrotic gene expression by qPCR in ARPE-19 cells treated ±TGFβ; assay type: cell-based, human; conditions: ARPE-19 + TGFβ (10 ng/mL), 24 hours, pramipexole 1 μM, compared to TGFβ only
Procedure: ARPE-19 cells were plated into 12 well plates (100,000 cells/well) and allowed to attach. Media was removed and replaced with the media specified in the “Cell Culture” section above, minus FBS. Cells were treated for 24 hours±TGFβ (10 ng/mL), 1 μM pramipexole, and 10 μM loxapine. RNA was isolated using the RNeasy Plus Mini Kit (Qiagen) and the manufacturer's protocol. Isolated RNA was converted to cDNA using the SuperScript VILO cDNA Synthesis Kit (Invitrogen) and the PTC-200 Peltier Thermal Cycler (MJ Research). Quantitative PCR (qPCR) was performed using FastStart Essential DNA Green Master (Roche) and LightCycler 96 (Roche).
After identifying the preferential expression of DRD2 in ARPE-19 cells, the regulatory effects of these receptors on fibrotic activation were elucidated. As to D2 dopamine receptor (FIG. 2A-B), RNA isolation and qPCR were used to measure the transcript levels of fibrotic markers in ARPE-19 cells treated±TGFβ, pramipexole (D2 agonist), and loxapine (D2 antagonist). […] In experiments combining pramipexole and loxapine along with TGFβ negates the activity of the molecules alone, confirming their activity is being driven by their interaction with the D2 receptor (FIG. 2B).
The effect of solnitropine, solupine, and loxapine on the expression of profibrotic genes COL1A1 and FN1 were evaluated as described in Example 1 (FIGS. 7A and 7B). In brief, ARPE-19 cells were treated±TGFβ in the presence of either loxapine, solnitropine, or solupine. Gene expression was measured by qPCR on RNA isolated from the treated cells 24 h after treatment.

[3] = test system: ARPE-19 cells; experiment: Wound healing (scratch-wound migration) assay; assay type: cell-based, human; conditions: ARPE-19, TGFβ (10 ng/mL), 10 μM loxapine, 0-72 hours
[4] = test system: ARPE-19 cells; assay type: cell-based, human; conditions: ARPE-19, 2% FBS, 10 μM loxapine, 4 days; live-cell protease activity and LIVE/DEAD assay
[5] = Aqueous solubility in phosphate buffered saline by turbidity (absorbance 620 nm); assay type: physicochemical; conditions: phosphate buffered saline pH=7.4, 20 minutes

| Compound | deposition of fibronectin [1] | expression of COL1A1 ([2]; antagonists 10 μM) | expression of FN1 ([2]; antagonists 10 μM) | expression of ACTA2 ([2]; loxapine 10 μM) | TGFβ-enhanced migration into wound area [3] | serum stimulated cellular proliferation [4] | solubility in aqueous solution relative to loxapine [5] |
| --- | --- | --- | --- | --- | --- | --- | --- |
| CN1CCN(C2=Nc3ccccc3Oc3ccc(Cl)cc32)CC1 [loxapine] | dramatically repressed the deposition of fibronectin | significant decrease; also recorded: significantly reduced | significant decrease; also recorded: significantly reduced | significant decrease | halted the enhanced migration | effectively inhibited this cellular expansion |  |
| c1ccc2c(c1)Oc1cccnc1N=C2N1CCNCC1 [solnitropine] |  |  |  |  |  |  | 3-10 fold |
| c1ccc2c(c1)Oc1sccc1N=C2N1CCNCC1 [solupine] |  |  |  |  |  |  | 3-10 fold |
